In patent publication EP2522358A1, “Peptides against rotavirus infection” (Laboratorios Ordesa, S.l., priority 2007, dated 2008):
Part of at least one peptide drawing is inferred or uncertain, most often the ends. Ends that are not written are not given here.

Columns and labels:
Wa [1] = assay: Inhibition of rotavirus Wa infection by 11-mer peptide in HT29 cells; assay type: cell-based, rotavirus (human origin)
OSU [2] = assay: Inhibition of rotavirus OSU infection by 11-mer peptide in HT29 cells; assay type: cell-based, rotavirus (animal origin)
RF [3] = assay: Inhibition of rotavirus RF infection by 11-mer peptide in HT29 cells; assay type: cell-based, rotavirus (animal origin)
Wa [4] = assay: Inhibition of rotavirus Wa infection by 11-mer peptide in MA104 cells; assay type: cell-based, rotavirus (human origin)
RF [5] = assay: Inhibition of rotavirus RF infection by 11-mer peptide in MA104 cells; assay type: cell-based, rotavirus (animal origin)
SA11 [6] = assay: Inhibition of rotavirus SA11 infection by 11-mer peptide in MA104 cells; assay type: cell-based, rotavirus (animal origin)
Aichi virus = assay: Inhibition of Aichi virus infection by 11-mer peptide in Vero cells; assay type: cell-based
Ito [7] = assay: Inhibition of rotavirus Ito infection by 11-mer peptide in HT29 cells; assay type: cell-based, rotavirus (human origin)
Ito [8] = assay: Inhibition of rotavirus Ito infection by 11-mer peptide in MA104 cells; assay type: cell-based, rotavirus (human origin)
VA70 [9] = assay: Inhibition of rotavirus VA70 infection by 11-mer peptide in MA104 cells; assay type: cell-based, rotavirus (human origin)
SA11 [10] = assay: Inhibition of rotavirus SA11 infection by 11-mer peptide in HT29 cells; assay type: cell-based, rotavirus (animal origin)
Astrovirus = assay: Inhibition of Astrovirus infection by 11-mer peptide in Caco-2 cells; assay type: cell-based, astrovirus from human origin
VA70 [11] = assay: Inhibition of rotavirus VA70 infection by 11-mer peptide in HT29 cells; assay type: cell-based, rotavirus (human origin)
OSU [12] = assay: Inhibition of rotavirus OSU infection by 11-mer peptide in MA104 cells; assay type: cell-based, rotavirus (animal origin)

Sequence: MHQPHQPLPPT [11-mer peptide, MHQPHQPLPPT]
- Inhibition of not sialic acid-dependent rotavirus strains infection (Wa [1]; peptide/cells, 1 µM): 0%
- Inhibition of not sialic acid-dependent rotavirus strains infection (Wa [1]; peptide/cells, 5 µM): 0%
- Inhibition of not sialic acid-dependent rotavirus strains infection (Wa [1]; peptide/cells, 10 µM): 0%
- Inhibition of not sialic acid-dependent rotavirus strains infection (Wa [1]; peptide/cells, 50 µM): 0%
- Inhibition of not sialic acid-dependent rotavirus strains infection (Wa [1]; peptide/virus, 1 µM): 28.42%
- Inhibition of not sialic acid-dependent rotavirus strains infection (Wa [1]; peptide/virus, 5 µM): 12.02%
- Inhibition of not sialic acid-dependent rotavirus strains infection (Wa [1]; peptide/virus, 10 µM): 0.55%
- Inhibition of not sialic acid-dependent rotavirus strains infection (Wa [1]; peptide/virus, 50 µM): 0%
- Inhibition of sialic acid-dependent rotavirus strains infection (OSU [2]; peptide/cells, 1 µM): 0%
- Inhibition of sialic acid-dependent rotavirus strains infection (OSU [2]; peptide/cells, 5 µM): 0%
- Inhibition of sialic acid-dependent rotavirus strains infection (OSU [2]; peptide/cells, 10 µM): 0%
- Inhibition of sialic acid-dependent rotavirus strains infection (OSU [2]; peptide/cells, 50 µM): 0%
- Inhibition of sialic acid-dependent rotavirus strains infection (OSU [2]; peptide/virus, 1 µM): 0%
- Inhibition of sialic acid-dependent rotavirus strains infection (OSU [2]; peptide/virus, 5 µM): 0%
- Inhibition of sialic acid-dependent rotavirus strains infection (OSU [2]; peptide/virus, 10 µM): 0%
- Inhibition of sialic acid-dependent rotavirus strains infection (OSU [2]; peptide/virus, 50 µM): 10.88%
- Inhibition of sialic acid-dependent rotavirus strains infection (RF [3]; peptide/cells, 1 µM): 0%
- Inhibition of sialic acid-dependent rotavirus strains infection (RF [3]; peptide/cells, 5 µM): 9.20%
- Inhibition of sialic acid-dependent rotavirus strains infection (RF [3]; peptide/cells, 10 µM): 17.82%
- Inhibition of sialic acid-dependent rotavirus strains infection (RF [3]; peptide/cells, 50 µM): 1.15%
- Inhibition of sialic acid-dependent rotavirus strains infection (RF [3]; peptide/virus, 1 µM): 23.02%
- Inhibition of sialic acid-dependent rotavirus strains infection (RF [3]; peptide/virus, 5 µM): 24.82%
- Inhibition of sialic acid-dependent rotavirus strains infection (RF [3]; peptide/virus, 10 µM): 17.27%
- Inhibition of sialic acid-dependent rotavirus strains infection (RF [3]; peptide/virus, 50 µM): 13.31%
- Inhibition of not sialic acid-dependent rotavirus strains infection (Wa [4]; 1 µM): 8.22%
- Inhibition of not sialic acid-dependent rotavirus strains infection (Wa [4]; 5 µM): 39.27%
- Inhibition of not sialic acid-dependent rotavirus strains infection (Wa [4]; 10 µM): 23.29%
- Inhibition of not sialic acid-dependent rotavirus strains infection (Wa [4]; 50 µM): 21%
- Inhibition of sialic acid-dependent rotavirus strains infection (RF [5]; peptide/cells, 1 µM): 0%
- Inhibition of sialic acid-dependent rotavirus strains infection (RF [5]; peptide/cells, 5 µM): 9.20%
- Inhibition of sialic acid-dependent rotavirus strains infection (RF [5]; peptide/cells, 10 µM): 17.82%
- Inhibition of sialic acid-dependent rotavirus strains infection (RF [5]; peptide/cells, 50 µM): 1.15%
- Inhibition of sialic acid-dependent rotavirus strains infection (RF [5]; peptide/virus, 1 µM): 23.02%
- Inhibition of sialic acid-dependent rotavirus strains infection (RF [5]; peptide/virus, 5 µM): 24.82%
- Inhibition of sialic acid-dependent rotavirus strains infection (RF [5]; peptide/virus, 10 µM): 17.27%
- Inhibition of sialic acid-dependent rotavirus strains infection (RF [5]; peptide/virus, 50 µM): 13.31%
- Inhibition of sialic acid-dependent rotavirus strains infection (SA11 [6]; peptide/cells, 5 µM): 39.67%
- Inhibition of sialic acid-dependent rotavirus strains infection (SA11 [6]; peptide/cells, 10 µM): 13.22%
- Inhibition of sialic acid-dependent rotavirus strains infection (SA11 [6]; peptide/cells, 50 µM): 52.89%
- Inhibition of sialic acid-dependent rotavirus strains infection (SA11 [6]; peptide/virus, 1 µM): 10.67%
- Inhibition of sialic acid-dependent rotavirus strains infection (SA11 [6]; peptide/virus, 5 µM): 5.62%
- Inhibition of sialic acid-dependent rotavirus strains infection (SA11 [6]; peptide/virus, 10 µM): 17.98%
- Inhibition of sialic acid-dependent rotavirus strains infection (SA11 [6]; peptide/virus, 50 µM): 2.81%
- Inhibition of Aichi virus infection (Aichi virus; peptide/cells, 1 µM): 0%
- Inhibition of Aichi virus infection (Aichi virus; peptide/cells, 5 µM): 22%
- Inhibition of Aichi virus infection (Aichi virus; peptide/cells, 10 µM): 10%
- Inhibition of Aichi virus infection (Aichi virus; peptide/cells, 50 µM): 34%
- Inhibition of Aichi virus infection (Aichi virus; peptide/virus, 1 µM): 2%
- Inhibition of Aichi virus infection (Aichi virus; peptide/virus, 5 µM): 8%
- Inhibition of Aichi virus infection (Aichi virus; peptide/virus, 10 µM): 0%
- Inhibition of Aichi virus infection (Aichi virus; peptide/virus, 50 µM): 13%
- Inhibition of not sialic acid-dependent rotavirus strains infection (Ito [7]; peptide/cells, 1 µM): 2.72%
- Inhibition of not sialic acid-dependent rotavirus strains infection (Ito [7]; peptide/cells, 5 µM): 0%
- Inhibition of not sialic acid-dependent rotavirus strains infection (Ito [7]; peptide/cells, 10 µM): 21.43%
- Inhibition of not sialic acid-dependent rotavirus strains infection (Ito [7]; peptide/cells, 50 µM): 6.46%
- Inhibition of not sialic acid-dependent rotavirus strains infection (Ito [7]; peptide/virus, 1 µM): 27.75%
- Inhibition of not sialic acid-dependent rotavirus strains infection (Ito [7]; peptide/virus, 5 µM): 26.59%
- Inhibition of not sialic acid-dependent rotavirus strains infection (Ito [7]; peptide/virus, 10 µM): 27.17%
- Inhibition of not sialic acid-dependent rotavirus strains infection (Ito [7]; peptide/virus, 50 µM): 11.56%
- Inhibition of not sialic acid-dependent rotavirus strains infection (Ito [8]; peptide/cells, 1 µM): 36.67%
- Inhibition of not sialic acid-dependent rotavirus strains infection (Ito [8]; peptide/cells, 5 µM): 36.67%
- Inhibition of not sialic acid-dependent rotavirus strains infection (Ito [8]; peptide/cells, 10 µM): 33.33%
- Inhibition of not sialic acid-dependent rotavirus strains infection (Ito [8]; peptide/cells, 50 µM): 26.67%
- Inhibition of not sialic acid-dependent rotavirus strains infection (Ito [8]; peptide/virus, 1 µM): 44.44%
- Inhibition of not sialic acid-dependent rotavirus strains infection (Ito [8]; peptide/virus, 5 µM): 40.74%
- Inhibition of not sialic acid-dependent rotavirus strains infection (Ito [8]; peptide/virus, 10 µM): 53.7%
- Inhibition of not sialic acid-dependent rotavirus strains infection (Ito [8]; peptide/virus, 50 µM): 33.33%
- Inhibition of not sialic acid-dependent rotavirus strains infection (VA70 [9]; peptide/cells, 1 µM): 23.33%
- Inhibition of not sialic acid-dependent rotavirus strains infection (VA70 [9]; peptide/cells, 5 µM): 25%
- Inhibition of not sialic acid-dependent rotavirus strains infection (VA70 [9]; peptide/cells, 10 µM): 24.17%
- Inhibition of not sialic acid-dependent rotavirus strains infection (VA70 [9]; peptide/cells, 50 µM): 0%
- Inhibition of not sialic acid-dependent rotavirus strains infection (VA70 [9]; peptide/virus, 1 µM): 0%
- Inhibition of not sialic acid-dependent rotavirus strains infection (VA70 [9]; peptide/virus, 5 µM): 0%
- Inhibition of not sialic acid-dependent rotavirus strains infection (VA70 [9]; peptide/virus, 10 µM): 0%
- Inhibition of not sialic acid-dependent rotavirus strains infection (VA70 [9]; peptide/virus, 50 µM): 0%
- Inhibition of sialic acid-dependent rotavirus strains infection (SA11 [10]; peptide/cells, 1 µM): 32.64%
- Inhibition of sialic acid-dependent rotavirus strains infection (SA11 [10]; peptide/cells, 5 µM): 39.67%
- Inhibition of sialic acid-dependent rotavirus strains infection (SA11 [10]; peptide/cells, 10 µM): 13.22%
- Inhibition of sialic acid-dependent rotavirus strains infection (SA11 [10]; peptide/cells, 50 µM): 52.89%
- Inhibition of sialic acid-dependent rotavirus strains infection (SA11 [10]; peptide/virus, 1 µM): 10.67%
- Inhibition of sialic acid-dependent rotavirus strains infection (SA11 [10]; peptide/virus, 5 µM): 5.62%
- Inhibition of sialic acid-dependent rotavirus strains infection (SA11 [10]; peptide/virus, 10 µM): 17.98%
- Inhibition of sialic acid-dependent rotavirus strains infection (SA11 [10]; peptide/virus, 50 µM): 2.81%
- Inhibition of Astrovirus infection (Astrovirus; peptide/cells, 1 µM): 0.37%
- Inhibition of Astrovirus infection (Astrovirus; peptide/cells, 5 µM): 15.50%
- Inhibition of Astrovirus infection (Astrovirus; peptide/cells, 10 µM): 20.84%
- Inhibition of Astrovirus infection (Astrovirus; peptide/cells, 50 µM): 0.38%
- Inhibition of Astrovirus infection (Astrovirus; peptide/virus, 1 µM): 2.63%
- Inhibition of Astrovirus infection (Astrovirus; peptide/virus, 5 µM): 0%
- Inhibition of Astrovirus infection (Astrovirus; peptide/virus, 10 µM): 8.42%
- Inhibition of Astrovirus infection (Astrovirus; peptide/virus, 50 µM): 6.49%
- Inhibition of not sialic acid-dependent rotavirus strains infection (VA70 [11]; peptide/cells, 1 µM): 40.91%
- Inhibition of not sialic acid-dependent rotavirus strains infection (VA70 [11]; peptide/cells, 5 µM): 18.18%
- Inhibition of not sialic acid-dependent rotavirus strains infection (VA70 [11]; peptide/cells, 10 µM): 13.64%
- Inhibition of not sialic acid-dependent rotavirus strains infection (VA70 [11]; peptide/cells, 50 µM): 31.82%
- Inhibition of not sialic acid-dependent rotavirus strains infection (VA70 [11]; peptide/virus, 1 µM): 0%
- Inhibition of not sialic acid-dependent rotavirus strains infection (VA70 [11]; peptide/virus, 5 µM): 0%
- Inhibition of not sialic acid-dependent rotavirus strains infection (VA70 [11]; peptide/virus, 10 µM): 0%
- Inhibition of not sialic acid-dependent rotavirus strains infection (VA70 [11]; peptide/virus, 50 µM): 0%
- Inhibition of sialic acid-dependent rotavirus strains infection (OSU [12]; peptide/cells, 1 µM): 0%
- Inhibition of sialic acid-dependent rotavirus strains infection (OSU [12]; peptide/cells, 5 µM): 0%
- Inhibition of sialic acid-dependent rotavirus strains infection (OSU [12]; peptide/cells, 10 µM): 0%
- Inhibition of sialic acid-dependent rotavirus strains infection (OSU [12]; peptide/cells, 50 µM): 0%
- Inhibition of sialic acid-dependent rotavirus strains infection (OSU [12]; peptide/virus, 1 µM): 0%
- Inhibition of sialic acid-dependent rotavirus strains infection (OSU [12]; peptide/virus, 5 µM): 0%
- Inhibition of sialic acid-dependent rotavirus strains infection (OSU [12]; peptide/virus, 10 µM): 0%
- Inhibition of sialic acid-dependent rotavirus strains infection (OSU [12]; peptide/virus, 50 µM): 10.88%
